The text below walks through data of article PMC12445474, “Conservation of heat stress acclimation by the IPK2-type kinases that control the synthesis of the inositol pyrophosphate 4/6-InsP7 in land plants” (PLOS Genetics, 2025).

For at least one entry, the source does not settle the construct or the ends of the probe. For some of these results: No signal at the amounts used counts as a negative. For some of these results: At least one verdict was read from the data and is not stated in words by the source. For some of these results: Tags and fusion partners may be left off the protein sequences shown.

Data set [1] deals with MpHSFB1. The data set can be described thus: EMSA. Conditions: EMSA: 250 nM FAM probe, 15 min on ice (30 min pre-incubation with partner or InsP), 6% native PAGE, binding buffer not stated (proteins purified in PBS pH 7.4), recombinant protein, protein details: N-terminal His8-MBP, label: 5' FAM on strand 1. In general terms: Mobility shift assays separate free from complexed probe on a gel.

The subject of data set [2] is MpHSFB1. Briefly: competition with a labelled probe. Conditions: 50-500 nM competitor, 50 nM protein, 250 nM labelled probe; EMSA: 250 nM FAM probe, 15 min on ice (30 min pre-incubation with partner or InsP), 6% native PAGE; binding buffer not stated (proteins purified in PBS pH 7.4); recombinant protein; protein details: N-terminal His8-MBP.
Data set [3] deals with T1, AtHSFA1b (UniProt O81821).
T1 sequence (looked up, limits assumed): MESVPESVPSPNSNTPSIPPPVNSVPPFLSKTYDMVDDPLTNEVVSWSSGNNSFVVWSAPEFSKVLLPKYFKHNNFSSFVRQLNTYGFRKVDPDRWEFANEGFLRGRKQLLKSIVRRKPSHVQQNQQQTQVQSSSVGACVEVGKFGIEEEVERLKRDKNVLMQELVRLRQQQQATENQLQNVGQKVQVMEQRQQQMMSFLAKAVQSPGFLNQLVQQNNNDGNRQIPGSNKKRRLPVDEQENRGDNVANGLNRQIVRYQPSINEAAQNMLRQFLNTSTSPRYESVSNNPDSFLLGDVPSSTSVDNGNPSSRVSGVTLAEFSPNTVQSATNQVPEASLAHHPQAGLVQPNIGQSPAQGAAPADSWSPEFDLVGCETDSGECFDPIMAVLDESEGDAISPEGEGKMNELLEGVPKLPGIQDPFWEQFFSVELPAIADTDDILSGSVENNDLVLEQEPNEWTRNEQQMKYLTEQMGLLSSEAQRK
The data set can be described thus: competition with a labelled probe. Conditions: 50-500 nM competitor, 50 nM protein, 250 nM labelled probe; EMSA: 250 nM FAM probe, 15 min on ice (30 min pre-incubation with partner or InsP), 6% native PAGE; binding buffer not stated (proteins purified in PBS pH 7.4); recombinant protein; protein details: N-terminal His8-MBP.

For data set [4], the system named is MBP. The data set can be described thus: EMSA. Conditions: 50-200 nM protein, 250 nM probe; EMSA: 250 nM FAM probe, 15 min on ice (30 min pre-incubation with partner or InsP), 6% native PAGE; binding buffer not stated (proteins purified in PBS pH 7.4); recombinant protein; protein details: His8; label: 5' FAM on strand 1.

For the sequence “CTCGGTCGATCGATGCATGATG / AAACCATCATGCATCGATCGAC [HSE∆]”, the binding result in data set [1] (50 and 100 nM protein, 250 nM probe) is listed as “no binding”.
Regarding “CTCGGTCGATCGAGAAGCTTCTGCATGATG / AAACCATCATGCAGAAGCTTCTCGATCGAC [unlabelled HSE competitor]”, the binding result in data set [2] and in data set [3] was “binds” each time.
Regarding “CTCGGTCGATCGAGAAGCTTCTGCATGATG / AAACCATCATGCAGAAGCTTCTCGATCGAC [FAM-HSE (AtHSP18.1 promoter element)]”, the binding result is recorded as “no binding” in data set [4]; “binds” in data set [1] (25-250 nM protein, 250 nM probe); “binds” in data set [1] (with 4/6-InsP7 (10 nM-10 µM): no effect); “binds” in data set [1] (with His8-MBP (50-500 nM): no effect); “binds” in data set [1] (with Ins(1,4,5)P3 (10 nM-10 µM): no effect); “binds” in data set [1] (with InsP6 (10 nM-10 µM): no effect). In addition, the binding result in data set [1] (with MBP-MpIPMK (50-500 nM): binding enhanced dose-dependently) is “binds”.
